Source: the supplement of paper PMC12067093, “Discovery and optimisation of a covalent ligand for TRIM25 and its application to targeted protein ubiquitination” (Chemical Science, 2025)
This is one part of the list.

Amino acid sequences for entries named in this document (tags omitted). A change or cut given only in a name is not applied to a line headed by its entry.
UniProt A2RUS2: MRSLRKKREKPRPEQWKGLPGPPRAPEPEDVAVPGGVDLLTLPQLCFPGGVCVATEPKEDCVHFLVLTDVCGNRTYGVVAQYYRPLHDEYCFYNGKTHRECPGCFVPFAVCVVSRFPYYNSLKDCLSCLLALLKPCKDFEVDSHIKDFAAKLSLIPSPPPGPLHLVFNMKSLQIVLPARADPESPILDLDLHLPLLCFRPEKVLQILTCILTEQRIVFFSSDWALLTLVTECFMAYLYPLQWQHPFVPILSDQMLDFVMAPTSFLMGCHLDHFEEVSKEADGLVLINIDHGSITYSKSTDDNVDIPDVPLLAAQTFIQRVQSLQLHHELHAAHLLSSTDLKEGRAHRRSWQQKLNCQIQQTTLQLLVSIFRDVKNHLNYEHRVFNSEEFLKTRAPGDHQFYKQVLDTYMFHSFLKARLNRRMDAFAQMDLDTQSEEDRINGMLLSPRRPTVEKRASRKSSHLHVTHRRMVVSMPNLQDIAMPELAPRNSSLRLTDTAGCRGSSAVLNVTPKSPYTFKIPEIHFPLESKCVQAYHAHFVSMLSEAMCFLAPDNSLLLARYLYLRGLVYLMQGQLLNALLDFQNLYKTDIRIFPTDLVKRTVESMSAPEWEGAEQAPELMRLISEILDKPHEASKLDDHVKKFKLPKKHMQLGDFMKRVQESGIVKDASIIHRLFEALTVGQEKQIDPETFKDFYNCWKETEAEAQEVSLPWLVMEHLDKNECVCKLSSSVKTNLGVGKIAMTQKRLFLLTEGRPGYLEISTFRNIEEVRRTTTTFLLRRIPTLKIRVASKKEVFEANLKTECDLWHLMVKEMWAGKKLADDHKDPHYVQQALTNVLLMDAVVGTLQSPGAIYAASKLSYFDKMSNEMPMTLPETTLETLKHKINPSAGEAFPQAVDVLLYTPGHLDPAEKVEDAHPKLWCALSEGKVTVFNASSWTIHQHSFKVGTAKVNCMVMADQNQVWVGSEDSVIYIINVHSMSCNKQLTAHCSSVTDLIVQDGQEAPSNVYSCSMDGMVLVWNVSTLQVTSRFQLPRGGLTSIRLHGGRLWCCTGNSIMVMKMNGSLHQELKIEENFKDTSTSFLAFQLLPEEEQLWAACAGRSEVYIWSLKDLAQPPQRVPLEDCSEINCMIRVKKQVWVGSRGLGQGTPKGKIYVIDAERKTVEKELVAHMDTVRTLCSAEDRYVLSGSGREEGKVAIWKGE
UniProt Q9GZR7: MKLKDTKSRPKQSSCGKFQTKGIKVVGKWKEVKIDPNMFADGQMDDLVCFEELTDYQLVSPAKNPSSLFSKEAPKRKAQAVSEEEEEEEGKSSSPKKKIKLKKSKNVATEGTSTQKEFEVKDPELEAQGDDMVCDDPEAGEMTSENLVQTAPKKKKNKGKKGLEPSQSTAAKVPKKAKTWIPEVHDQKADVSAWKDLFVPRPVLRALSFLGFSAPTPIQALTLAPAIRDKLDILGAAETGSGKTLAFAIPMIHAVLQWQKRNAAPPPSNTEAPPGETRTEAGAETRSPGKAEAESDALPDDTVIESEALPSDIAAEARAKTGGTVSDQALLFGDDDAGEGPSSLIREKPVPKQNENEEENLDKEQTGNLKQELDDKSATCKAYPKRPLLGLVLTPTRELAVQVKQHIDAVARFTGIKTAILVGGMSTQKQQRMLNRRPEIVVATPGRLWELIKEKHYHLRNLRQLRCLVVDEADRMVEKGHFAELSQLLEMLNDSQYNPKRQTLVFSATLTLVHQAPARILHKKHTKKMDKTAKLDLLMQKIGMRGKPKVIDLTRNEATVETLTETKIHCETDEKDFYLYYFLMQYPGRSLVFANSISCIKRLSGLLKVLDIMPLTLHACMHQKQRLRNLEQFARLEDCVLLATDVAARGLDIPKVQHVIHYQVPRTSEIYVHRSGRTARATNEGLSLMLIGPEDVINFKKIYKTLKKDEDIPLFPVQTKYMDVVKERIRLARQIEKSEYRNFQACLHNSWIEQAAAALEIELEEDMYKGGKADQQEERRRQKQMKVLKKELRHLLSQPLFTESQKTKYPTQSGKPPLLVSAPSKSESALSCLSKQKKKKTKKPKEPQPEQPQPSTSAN
UniProt Q9Y2R4: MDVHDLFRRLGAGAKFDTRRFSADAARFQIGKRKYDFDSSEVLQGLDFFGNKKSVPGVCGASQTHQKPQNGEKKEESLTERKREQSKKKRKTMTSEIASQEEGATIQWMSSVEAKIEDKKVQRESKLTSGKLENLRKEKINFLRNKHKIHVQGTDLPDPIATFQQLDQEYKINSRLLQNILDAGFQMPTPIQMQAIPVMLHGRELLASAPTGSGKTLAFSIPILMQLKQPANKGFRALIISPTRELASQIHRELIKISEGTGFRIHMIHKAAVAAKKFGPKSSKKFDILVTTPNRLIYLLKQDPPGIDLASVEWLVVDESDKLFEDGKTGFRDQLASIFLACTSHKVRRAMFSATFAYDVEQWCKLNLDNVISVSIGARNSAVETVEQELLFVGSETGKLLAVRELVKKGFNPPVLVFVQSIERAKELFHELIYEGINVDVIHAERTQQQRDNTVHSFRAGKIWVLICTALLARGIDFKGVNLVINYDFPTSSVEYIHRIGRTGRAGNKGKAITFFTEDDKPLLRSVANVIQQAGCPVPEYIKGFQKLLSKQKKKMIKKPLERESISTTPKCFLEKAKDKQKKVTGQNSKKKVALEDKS
UniProt Q9Y315: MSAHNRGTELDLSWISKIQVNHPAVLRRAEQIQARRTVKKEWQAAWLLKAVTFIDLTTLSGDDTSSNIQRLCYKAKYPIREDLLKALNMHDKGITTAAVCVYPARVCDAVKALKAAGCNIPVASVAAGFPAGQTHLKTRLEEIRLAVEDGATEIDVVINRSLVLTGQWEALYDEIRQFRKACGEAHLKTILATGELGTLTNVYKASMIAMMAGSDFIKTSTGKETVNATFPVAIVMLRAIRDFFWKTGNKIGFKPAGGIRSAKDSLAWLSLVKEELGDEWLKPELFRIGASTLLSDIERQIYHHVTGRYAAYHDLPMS
UniProt Q9UHI6: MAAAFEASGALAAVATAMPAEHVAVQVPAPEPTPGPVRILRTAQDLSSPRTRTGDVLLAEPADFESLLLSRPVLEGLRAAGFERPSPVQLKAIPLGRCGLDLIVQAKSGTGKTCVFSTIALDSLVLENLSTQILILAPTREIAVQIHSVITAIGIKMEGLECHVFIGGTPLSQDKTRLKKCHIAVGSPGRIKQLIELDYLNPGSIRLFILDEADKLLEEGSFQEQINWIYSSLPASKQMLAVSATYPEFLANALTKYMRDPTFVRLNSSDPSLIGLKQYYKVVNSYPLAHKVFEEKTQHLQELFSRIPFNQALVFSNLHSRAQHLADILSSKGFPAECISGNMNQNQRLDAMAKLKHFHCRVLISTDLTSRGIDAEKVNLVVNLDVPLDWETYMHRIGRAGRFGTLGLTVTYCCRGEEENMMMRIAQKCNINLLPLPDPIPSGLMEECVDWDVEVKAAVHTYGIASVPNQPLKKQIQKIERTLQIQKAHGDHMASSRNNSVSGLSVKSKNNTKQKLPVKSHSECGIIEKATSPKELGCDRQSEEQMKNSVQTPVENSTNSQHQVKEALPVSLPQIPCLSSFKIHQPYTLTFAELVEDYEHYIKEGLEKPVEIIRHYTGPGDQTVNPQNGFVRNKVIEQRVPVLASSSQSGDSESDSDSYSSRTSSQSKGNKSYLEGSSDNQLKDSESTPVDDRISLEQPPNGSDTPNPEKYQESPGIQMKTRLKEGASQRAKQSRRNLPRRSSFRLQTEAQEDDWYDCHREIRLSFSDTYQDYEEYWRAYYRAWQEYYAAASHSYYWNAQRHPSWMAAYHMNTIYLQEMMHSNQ
UniProt Q7L014: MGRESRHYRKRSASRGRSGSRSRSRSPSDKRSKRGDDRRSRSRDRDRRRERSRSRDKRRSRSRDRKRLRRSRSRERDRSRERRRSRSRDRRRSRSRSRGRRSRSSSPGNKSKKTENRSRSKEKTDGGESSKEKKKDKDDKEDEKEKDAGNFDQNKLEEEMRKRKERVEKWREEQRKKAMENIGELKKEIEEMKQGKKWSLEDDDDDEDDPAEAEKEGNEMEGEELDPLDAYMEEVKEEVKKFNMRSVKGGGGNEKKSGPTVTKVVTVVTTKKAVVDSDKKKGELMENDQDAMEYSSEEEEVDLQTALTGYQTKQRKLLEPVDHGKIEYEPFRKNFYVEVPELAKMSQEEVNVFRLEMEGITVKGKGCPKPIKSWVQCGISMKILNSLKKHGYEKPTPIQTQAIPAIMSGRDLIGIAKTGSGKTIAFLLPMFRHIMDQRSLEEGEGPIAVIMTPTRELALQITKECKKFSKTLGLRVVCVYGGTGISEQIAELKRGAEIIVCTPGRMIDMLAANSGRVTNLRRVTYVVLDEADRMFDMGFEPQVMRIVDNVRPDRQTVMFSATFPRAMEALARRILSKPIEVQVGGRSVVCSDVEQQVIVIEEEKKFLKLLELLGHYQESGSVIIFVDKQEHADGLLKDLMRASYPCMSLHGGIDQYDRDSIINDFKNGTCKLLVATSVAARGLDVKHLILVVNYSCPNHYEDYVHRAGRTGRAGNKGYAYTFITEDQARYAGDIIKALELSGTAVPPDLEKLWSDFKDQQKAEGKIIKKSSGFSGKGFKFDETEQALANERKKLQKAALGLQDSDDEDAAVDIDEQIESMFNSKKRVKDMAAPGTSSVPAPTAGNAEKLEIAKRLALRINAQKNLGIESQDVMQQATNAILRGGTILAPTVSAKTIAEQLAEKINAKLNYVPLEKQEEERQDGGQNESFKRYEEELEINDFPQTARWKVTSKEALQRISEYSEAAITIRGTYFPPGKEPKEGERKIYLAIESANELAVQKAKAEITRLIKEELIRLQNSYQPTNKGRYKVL
UniProt Q16531, whole entry, looked up: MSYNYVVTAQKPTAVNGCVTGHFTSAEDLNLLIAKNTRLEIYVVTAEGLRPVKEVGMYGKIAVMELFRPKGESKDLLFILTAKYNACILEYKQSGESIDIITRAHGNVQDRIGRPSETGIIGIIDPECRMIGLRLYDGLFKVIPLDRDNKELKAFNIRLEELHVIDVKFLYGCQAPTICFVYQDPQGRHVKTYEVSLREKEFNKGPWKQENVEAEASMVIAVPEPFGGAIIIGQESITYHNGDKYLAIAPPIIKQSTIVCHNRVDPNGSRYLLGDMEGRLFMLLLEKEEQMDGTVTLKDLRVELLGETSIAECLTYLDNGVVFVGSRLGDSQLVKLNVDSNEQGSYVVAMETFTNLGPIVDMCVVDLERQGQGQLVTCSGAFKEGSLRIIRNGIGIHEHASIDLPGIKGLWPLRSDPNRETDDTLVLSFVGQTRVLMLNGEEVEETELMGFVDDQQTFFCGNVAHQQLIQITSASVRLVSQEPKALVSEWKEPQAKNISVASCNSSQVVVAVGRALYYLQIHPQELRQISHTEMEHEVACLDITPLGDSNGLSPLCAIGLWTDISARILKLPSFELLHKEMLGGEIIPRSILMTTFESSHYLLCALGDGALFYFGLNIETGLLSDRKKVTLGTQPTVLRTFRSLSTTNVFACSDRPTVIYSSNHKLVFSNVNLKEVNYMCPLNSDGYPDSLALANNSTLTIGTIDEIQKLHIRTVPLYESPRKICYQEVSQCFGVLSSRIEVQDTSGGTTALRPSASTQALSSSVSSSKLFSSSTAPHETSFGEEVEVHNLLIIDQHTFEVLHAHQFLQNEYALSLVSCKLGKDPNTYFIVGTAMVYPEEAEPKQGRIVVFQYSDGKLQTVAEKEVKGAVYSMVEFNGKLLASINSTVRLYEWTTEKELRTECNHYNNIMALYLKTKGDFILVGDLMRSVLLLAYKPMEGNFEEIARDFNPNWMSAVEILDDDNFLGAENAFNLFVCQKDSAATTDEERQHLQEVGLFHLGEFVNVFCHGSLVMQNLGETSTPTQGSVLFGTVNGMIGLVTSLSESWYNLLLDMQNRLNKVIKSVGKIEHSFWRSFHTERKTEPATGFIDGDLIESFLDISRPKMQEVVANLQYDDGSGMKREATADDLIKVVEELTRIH
UniProt Q7Z3D6: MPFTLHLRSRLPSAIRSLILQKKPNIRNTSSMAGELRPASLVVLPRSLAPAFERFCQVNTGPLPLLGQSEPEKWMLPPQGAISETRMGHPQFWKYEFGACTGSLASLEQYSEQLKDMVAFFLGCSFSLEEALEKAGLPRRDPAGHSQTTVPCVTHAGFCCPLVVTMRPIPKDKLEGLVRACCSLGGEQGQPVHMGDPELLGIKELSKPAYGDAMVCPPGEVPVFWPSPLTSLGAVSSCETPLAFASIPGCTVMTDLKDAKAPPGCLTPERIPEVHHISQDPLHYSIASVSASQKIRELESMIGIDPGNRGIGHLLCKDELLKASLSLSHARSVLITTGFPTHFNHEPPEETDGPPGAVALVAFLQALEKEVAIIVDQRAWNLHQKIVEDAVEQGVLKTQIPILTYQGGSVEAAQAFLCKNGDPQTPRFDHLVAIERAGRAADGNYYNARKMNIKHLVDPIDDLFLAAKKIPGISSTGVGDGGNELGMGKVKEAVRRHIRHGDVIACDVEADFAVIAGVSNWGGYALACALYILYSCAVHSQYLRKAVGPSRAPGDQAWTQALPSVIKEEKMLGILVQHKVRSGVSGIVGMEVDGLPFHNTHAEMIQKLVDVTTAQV

compound: Cc1cc(ccc1-c1ccccc1)C(=O)N1CCCN(CC1)C(=O)CCl [compound 10]; experiment: probe-labelled cysteine peptide fold change vs DMSO (competition) (log2 fold change); higher = less target engagement (more negative = stronger competition); details: 50 µM; THP-1; incubation time: 4 h
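Also: competitive profiling in live THP-1 cells: cysteine peptides tagged with an iodoacetamide desthiobiotin (IA-DTB) probe, intensity after compound treatment relative to DMSO-treated cells.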

Target | probe-labelled cysteine peptide fold change
DENND4B_O75064_165_AAEGAGLHALGITDLCLVLPSK (UniProt O75064) | 0.134
DGKE_P52429_167_TVHDECMK (UniProt P52429) | -0.168
DENND3_A2RUS2_61_EDCVHFLVLTDVCGNR (UniProt A2RUS2) | -0.238
DDX24_Q9GZR7_467_CLVVDEADR (UniProt Q9GZR7) | 0.324
DDX42_Q86XP3_333_ELEPGDGPIAVIVCPTR (UniProt Q86XP3) | 0.124
DDX24_Q9GZR7_570_IHCETDEK (UniProt Q9GZR7) | 0.261
DDX54_Q8TDD1_389_CSTLIVTDLAAR (UniProt Q8TDD1) | 0.184
DHCR24_Q15392_474_SVHGFQMLYADCYMNREEFWEMFDGSLYHK (UniProt Q15392) | 0.142
DENND3_A2RUS2_723_NECVCK (UniProt A2RUS2) | -0.337
DDX52_Q9Y2R4_59_SVPGVCGASQTHQKPQNGEK (UniProt Q9Y2R4) | -0.407
DDX60_Q8IY21_857_HDALNCQVLITVPACFEILLLAPHR (UniProt Q8IY21) | 0.181
DERA_Q9Y315_118_AAGCNIPVASVAAGFPAGQTHLK (UniProt Q9Y315) | 0.125
DDX17_Q92841_199_PVFAFHHANFPQYVMDVLMDQHFTEPTPIQCQGFPLALSGR (UniProt Q92841) | 0.291
DHRS7_Q9Y394_147_SLCMDTSLDVYRK (UniProt Q9Y394) | -0.102
DDX20_Q9UHI6_181_CHIAVGSPGR (UniProt Q9UHI6) | -0.0618
DGKA_P23743_253_ALPCEVSTYAK (UniProt P23743) | -0.455
DENND4C_Q5VZ89_1086_ILTAALTCPK (UniProt Q5VZ89) | -0.803
DDX39A_O00148_74_AIVDCGFEHPSEVQHECIPQAILGMDVLCQAK (UniProt O00148) | 0.0748

Target | probe-labelled cysteine peptide fold change
DDX46_Q7L014_646_ASYPCMSLHGGIDQYDRDSIINDFK (UniProt Q7L014) | -0.185
DDX17_Q92841_447_DGWPAMCIHGDK (UniProt Q92841) | -0.213
DDB1_Q16531_652_SLSTTNVFACSDRPTVIYSSNHK (UniProt Q16531) | 0.229
DDX5_P17844_89_GHNCPKPVLNFYEANFPANVMDVIAR (UniProt P17844) | -0.128
DDX17_Q92841_166_GGDVCPKPVFAFHHANFPQYVMDVLMDQHFTEPTPIQCQGFPLALSGR (UniProt Q92841) | -0.437
DGKZ_Q13574_905_WCFLDATTASR (UniProt Q13574) | 0.222
DDX21_Q9NR30_291_KLSVACFYGGTPYGGQFER (UniProt Q9NR30) | -0.636
DDX50_Q9BQ39_490_TGICICFYQPR (UniProt Q9BQ39) | -0.522
DDX58_O95786_278_TFVSLLICEHHLK (UniProt O95786) | -0.0657
DDX20_Q9UHI6_98_CGLDLIVQAK (UniProt Q9UHI6) | -0.579
DDX60L_Q5H9U9_1671_DFAFNIQAISDSLSELCENKR (UniProt Q5H9U9) | 0.512
DEPTOR_Q8TB45_102_GIIHHVCDEHK (UniProt Q8TB45) | -0.375
DDX10_Q13206_392_GLDFPAVNWVLQFDCPEDANTYIHR (UniProt Q13206) | 0.575
DGLUCY_Q7Z3D6_418_TQIPILTYQGGSVEAAQAFLCK (UniProt Q7Z3D6) | 0.135
DDX39A_O00148_62+86_AIVDCGFEHPSEVQHECIPQAILGMDVLCQAK (UniProt O00148) | 0.0973
DDB1_Q16531_378_QGQGQLVTCSGAFK (UniProt Q16531) | 0.15
DDX56_Q9NY93_518_KLSSSCR (UniProt Q9NY93) | -0.808
